# In the supplement of paper PMC8728848:
# The list shows a part of the results.
# B1: BT4246 (Bacteroides thetaiotaomicron), Q89ZX5 (protein)
# chain: MGSSHHHHHHENLYFQGHMASDYLDVVPPEQPNIDDAMSSPTRALGFLYSCYGGVSTDLPSAYLGEINSTTDEYVLPYSWNTDGYWGAYAFNTASSTNQDWLWGTTYQYIGQCYLFLQKLENAGSDIASDAEKEQWRAECQFLVAYYHFATLRRYGPIPITDSYIPMDTPTSEYNGRFHFDYCVDWIANQLDEAAKVLPANRTVTNEWGRATSTIAKAVKARLLLYAASPLWNGSFPYPNWQNENFETPGYGKALVSNTYDKSKWERALAACQEALTLATTSGDRELYDDDEYYSRQSLNLPFVPGVADVEDNKEFLKNVMKMRYAVSTRESEGNKEIIWGLSNQFDFYSRYPLRILKKSDGTWHAGYSGVSPTLYTFEHFYTANGKLPEKDLDFTPSSEWFESAGISSREDIIKLNVGREPRFYAWMAFDGGDYGTKFAAGSPLKLEMRNSEMHGYNPSLFNRDHSVTGFLTQKFVDPVTEFYTAGGSTSGTSAPTILFRLAELYLNVAECHAALGNTQEAIDALNPVRERAGIPKLTLADITNNMTIKDWVHNERFVELWNEGHRFFDVRRWAEGAKYFGANKREGLNAEVQSPTFEEFNKRTTVDAPYVWENRMYLNPVFYNEVYKNPQMVQAPGY
# Legend:
# Assay in all cases: glycan array binding signal (z-score within array); higher = stronger binding
# Details in all cases: glycan notation: IUPAC condensed, linker removed
# [1] = target: Gal(b1-3)GlcNAc(b1-2)Man(a1-3)[Gal(b1-3)GlcNAc(b1-2)Man(a1-6)]Man(b1-4)GlcNAc(b1-4)GlcNAc
# Outline: (§1)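 Glycan array data came from 3228 arrays in the Consortium for Functional Glycomics database, and only arrays with an available protein sequence were kept. Glycan names were put into IUPAC-condensed notation, and columns mapping to the same glycan were averaged. The binding signal is a within-array Z-score, averaged across arrays of one protein sequence run at different concentrations or buffers and across linkers. A negative Z-score can be read as non-binding.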
# [2] = target: Gal(b1-3)GlcNAc(b1-2)Man(a1-3)[Gal(b1-3)GlcNAc(b1-2)Man(a1-6)]Man(b1-4)GlcNAc(b1-4)[Fuc(a1-6)]GlcNAc
# Outline: as §1
# [3] = target: Gal(b1-3)GlcNAc(b1-2)Man(a1-3)[GlcNAc(b1-4)][Gal(b1-3)GlcNAc(b1-2)Man(a1-6)]Man(b1-4)GlcNAc(b1-4)GlcNAc
# Outline: as §1
# [4] = target: Gal(b1-3)GlcNAc(b1-2)[Gal(b1-3)GlcNAc(b1-6)]Man(a1-6)[Gal(b1-3)GlcNAc(b1-2)Man(a1-3)]Man(b1-4)GlcNAc(b1-4)GlcNAc
# Outline: as §1
# [5] = target: Gal(b1-3)GlcNAc(b1-3)Gal(b1-3)GlcNAc
# Outline: as §1
# [6] = target: Gal(b1-3)GlcNAc(b1-3)Gal(b1-4)Glc
# Outline: as §1
# [7] = target: Gal(b1-3)GlcNAc(b1-3)Gal(b1-4)GlcNAc
# Outline: as §1
# [8] = target: Gal(b1-3)GlcNAc(b1-3)Gal(b1-4)GlcNAc(b1-2)Man(a1-3)[Gal(b1-3)GlcNAc(b1-3)Gal(b1-4)GlcNAc(b1-2)Man(a1-6)]Man(b1-4)GlcNAc(b1-4)GlcNAc
# Outline: as §1
# [9] = target: Gal(b1-3)GlcNAc(b1-3)Gal(b1-4)GlcNAc(b1-2)[Gal(b1-3)GlcNAc(b1-3)Gal(b1-4)GlcNAc(b1-6)]Man(a1-6)[Gal(b1-3)GlcNAc(b1-3)Gal(b1-4)GlcNAc(b1-2)Man(a1-3)]Man(b1-4)GlcNAc(b1-4)[Fuc(a1-6)]GlcNAc
# Outline: as §1
# [10] = target: Gal(b1-3)GlcNAc(b1-3)Gal(b1-4)GlcNAc(b1-3)Gal(b1-4)GlcNAc(b1-2)[Gal(b1-3)GlcNAc(b1-3)Gal(b1-4)GlcNAc(b1-3)Gal(b1-4)GlcNAc(b1-6)]Man(a1-6)[Gal(b1-3)GlcNAc(b1-3)Gal(b1-4)GlcNAc(b1-3)Gal(b1-4)GlcNAc(b1-2)Man(a1-3)]Man(b1-4)GlcNAc(b1-4)[Fuc(a1-6)]GlcNAc
# Outline: as §1
# [11] = target: Gal(b1-3)GlcNAc(b1-3)Gal(b1-4)GlcNAc(b1-6)[Gal(b1-3)GlcNAc(b1-3)]Gal(b1-4)Glc
# Outline: as §1
# [12] = target: Gal(b1-3)GlcNAc(b1-3)Gal(b1-4)[Fuc(a1-3)]GlcNAc
# Outline: as §1
# [13] = target: Gal(b1-3)GlcNAc(b1-3)Gal(b1-4)[Fuc(a1-3)]GlcNAc(b1-6)[Gal(b1-3)GlcNAc(b1-3)]Gal(b1-4)Glc
# Outline: as §1
# [14] = target: Gal(b1-3)GlcNAc(b1-3)GalNAc
# Outline: as §1
# [15] = target: Gal(b1-3)GlcNAc(b1-6)Gal(b1-4)GlcNAc
# Outline: as §1
# [16] = target: Gal(b1-3)GlcNAc(b1-6)GalNAc
# Outline: as §1
# [17] = target: Gal(b1-3)GlcNAc(b1-6)[Gal(b1-3)]GalNAc
# Outline: as §1
# Gal(b1-3)GlcNAc6S = target: Gal(b1-3)GlcNAc6S
# Outline: as §1
# [18] = target: Gal(b1-3)[Fuc(a1-4)]GlcNAc
# Outline: as §1
# [19] = target: Gal(b1-3)[Fuc(a1-4)]GlcNAc(b1-2)Man
# Outline: as §1
# [20] = target: Gal(b1-3)[Fuc(a1-4)]GlcNAc(b1-2)Man(a1-3)[Gal(b1-3)[Fuc(a1-4)]GlcNAc(b1-2)Man(a1-6)]Man(b1-4)GlcNAc(b1-4)[Fuc(a1-6)]GlcNAc
# Outline: as §1
# [21] = target: Gal(b1-3)[Fuc(a1-4)]GlcNAc(b1-3)Gal(b1-3)[Fuc(a1-4)]GlcNAc
# Outline: as §1
# [22] = target: Gal(b1-3)[Fuc(a1-4)]GlcNAc(b1-3)Gal(b1-4)[Fuc(a1-3)]GlcNAc
# Outline: as §1
# [23] = target: Gal(b1-3)[Fuc(a1-4)]GlcNAc(b1-6)GalNAc
# Outline: as §1
# [24] = target: Gal(b1-3)[GlcNAc(b1-6)]GalNAc
# Outline: as §1
# [25] = target: Gal(b1-3)[Neu5Ac(a2-6)]GalNAc
# Outline: as §1
# [26] = target: Gal(b1-3)[Neu5Ac(a2-6)]GlcNAc(b1-4)Gal(b1-4)Glc
# Outline: as §1
# [27] = target: Gal(b1-3)[Neu5Ac(b2-6)]GalNAc
# Outline: as §1
# Gal(b1-4)Gal = target: Gal(b1-4)Gal
# Outline: as §1
# [28] = target: Gal(b1-4)GalNAc(a1-3)[Fuc(a1-2)]Gal(b1-4)GlcNAc
# Outline: as §1
binder,measurement,setting,value
B1,glycan array binding signal (z-score),[1],2
same,glycan array binding signal (z-score),[2],0.617
same,glycan array binding signal (z-score),[3],0.771
same,glycan array binding signal (z-score),[4],-0.163
same,glycan array binding signal (z-score),[5],-0.034
same,glycan array binding signal (z-score),[6],-1.07
same,glycan array binding signal (z-score),[7],0.9
same,glycan array binding signal (z-score),[8],0.575
same,glycan array binding signal (z-score),[9],0.092
same,glycan array binding signal (z-score),[10],0.645
same,glycan array binding signal (z-score),[11],-0.463
same,glycan array binding signal (z-score),[12],-0.575
same,glycan array binding signal (z-score),[13],-0.325
same,glycan array binding signal (z-score),[14],-0.62
same,glycan array binding signal (z-score),[15],-0.284
same,glycan array binding signal (z-score),[16],-0.055
same,glycan array binding signal (z-score),[17],-1.22
same,glycan array binding signal (z-score),Gal(b1-3)GlcNAc6S,-1.39
same,glycan array binding signal (z-score),[18],0.209
same,glycan array binding signal (z-score),[19],1.54
same,glycan array binding signal (z-score),[20],-0.424
same,glycan array binding signal (z-score),[21],-1.87
same,glycan array binding signal (z-score),[22],-0.234
same,glycan array binding signal (z-score),[23],-0.872
same,glycan array binding signal (z-score),[24],-0.03
same,glycan array binding signal (z-score),[25],1.04
same,glycan array binding signal (z-score),[26],-0.308
same,glycan array binding signal (z-score),[27],-0.388
same,glycan array binding signal (z-score),Gal(b1-4)Gal,-0.37
same,glycan array binding signal (z-score),[28],-1.42

# Reprinted from above (2 entries):
binder,measurement,setting,value
B1,glycan array binding signal (z-score),[19],1.54
same,glycan array binding signal (z-score),[20],-0.424
